Several values for one entry are separate records, joined by “and”; a condition that tells them apart may be missing. Equal values may be shown once. The source gives many values for each of these; only a part stands here.
Assays:
[1] = target: T1, FFA1-Nluc (Homo sapiens, UniProt O14842); test: Ca2+ mobilisation antagonism of FFA1 agonists (TUG-905, T360) in Flp-In T-REx 293 cells expressing FFA1-Nluc; type: cell-based; design: expressed in transfected cells
Description: Nluc-FFA1, FFA1-Nluc or untagged FFA1 Flp-In T-REx 293 cells were plated at 50,000 cells per well in poly-D-lysine coated black clear bottom 96-well plates. Cells were then cultured for 24 h until reaching confluency before culture medium was replaced with medium containing 100 ng/mL of doxycycline to induce receptor expression. Cells were cultured for a further 24 h before the assay. On the day of the assay culture medium was removed and replaced with medium containing 3 μM Fura2-AM Ca^2+ dye. […] Fura2 fluorescent emission at 520 nm following excitation with each of 340 and 380 nm was measured in regular intervals both before and after adding test compounds for a total of 90 s per well. Calcium responses were determined by taking the peak 340/380 ratio after first subtracting the ratios obtained prior to addition of test compound. […]
Ca2+ mobilization responses were measured in
Flp-In T-REx 293 cells expressing FFA1-Nluc. Ca2+ responses to increasing concentrations
pre-treated with 10 μM PPTQ. The mode of antagonism for PPTQ was assessed by
N=3 (A-D, F, H) or N=4 (E, G) independent experiments. S ource data are provided as a […]

Chains of the proteins cited; added tags and fusions are not shown.
UniProt O14842, whole entry: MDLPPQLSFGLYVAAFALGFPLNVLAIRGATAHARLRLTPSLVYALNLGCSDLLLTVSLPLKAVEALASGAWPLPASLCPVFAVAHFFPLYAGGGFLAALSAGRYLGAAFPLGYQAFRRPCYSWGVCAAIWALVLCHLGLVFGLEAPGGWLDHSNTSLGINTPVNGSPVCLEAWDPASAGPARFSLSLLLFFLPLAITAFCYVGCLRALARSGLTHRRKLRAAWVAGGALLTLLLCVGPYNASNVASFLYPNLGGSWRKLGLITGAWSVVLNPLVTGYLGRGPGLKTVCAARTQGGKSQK

[2] = target: T1, FFA1-Nluc; test: DISCo-BRET (endpoint, spectra scan, kinetics) with TUG-2591 and TUG-2597 at C terminal Nluc tagged FFA1; type: binding; design: expressed in transfected cells; conditions: Figure 4Biii, single replicate values (technical duplicate)
Description: Nluc-FFA1 or FFA1-Nluc Flp-In T-REx 293 cells were plated at 50,000 cells per well in poly-D-lysine coated white 96-well plates. Cells were cultured for 24 h in the plate before medium was replaced with medium containing 100 ng/mL of doxycycline to induce receptor expression. After culturing for a further 24 h, culture medium was removed, cells washed with HBSS and incubated in HBSS for 30 min. For all DISCo-BRET formats Nano-Glo substrate was then added at a 1:800 final dilution and cells incubated for 10 min. Following substrate addition experimental set up different among the three formats: endpoint, spectra scan, and kinetics.
For endpoint experiments all fluorescent and unlabelled ligands were added to the cells and incubated for 5 min at 37 °C. Luminescent emission was then measured using a CLARIOstar microplate reader with monochromator set at 450–60 nm (Nluc), 540−60 nm (NBD) and 690–100 nm (SulfoCy5). BRET ratios were then calculated as either SulfoCy5 emission divided by NBD emission, SulfoCy5 emission divided by Nluc emission, or NBD emission divided by Nluc emission.
For spectra scan experiments all indicated fluorescent and unlabelled ligands were added to the cells and cells incubated for 5 min at 37 °C. Luminescence emissions were then measured from each well of the plate from 440 nm – 740 nm with a 5 nm resolution using a CLARIOstar microplate. […]
In kinetic DISCo-BRET experiments plates were placed directly in a CLARIOstar plate reader set to 25 °C 10 min after Nano-Glo substrate addition. […] After 5 min of background measurements, the plate reader was paused for the first indicated fluorescent ligand(s) addition, before immediately returning the plate to the reader to continue luminescence readings. After 5 min, the reader was again paused to add the second fluorescent ligand (association assays) or competing ligand(s) (dissociation assays), before immediately continuing the measurements for the indicated time. […]

| Ca2% Response (%) ([1]; log[T360] -8, 10 μΜ (antagonist not given), Sup Figure 6F) | Ca2% Response (%) ([1]; log[T360] -8, column head 1.0 μM (antagonist not given), Sup Figure 6F) | Ca2% Response (%) ([1]; log[T360] -9, 10 μΜ (antagonist not given), Sup Figure 6F) | Specific BRET (540/450), % of control ([2]; log[Ligand] -6) | SMILES | Ca2% Response (%) ([1]; log[T360] -4.5, 10 μΜ (antagonist not given), Sup Figure 6F) | Ca2% Response (%) ([1]; log[T360] -5, Veh (no antagonist), technical duplicates, Sup Fig 6H) | Ca2% Response (%) ([1]; log[T360] -5, 10 μΜ (antagonist not given), Sup Figure 6F) | Ca2% Response (%) ([1]; log[T360] -5, Veh (no antagonist), Sup Figure 6F) | Ca2% Response (%) ([1]; log[T360] -5, column head 1.0 μM (antagonist not given), Sup Figure 6F) | Ca2% Response (%) ([1]; log[T360] -5.5, 10 μΜ (antagonist not given), Sup Figure 6F) | Ca2% Response (%) ([1]; log[T360] -5.5, Veh (no antagonist), Sup Figure 6F) | Ca2% Response (%) ([1]; log[T360] -5.5, column head 1.0 μM (antagonist not given), Sup Figure 6F) | Ca2% Response (%) ([1]; log[T360] -6, Veh (no antagonist), Sup Fig 6H) | Ca2% Response (%) ([1]; log[T360] -7, Veh (no antagonist), Sup Fig 6H) | Ca2% Response (%) ([1]; log[T360] -9, Veh (no antagonist), Sup Fig 6H) | Ca2% Response (%) ([1]; log[T360] -9, Veh (no antagonist), Sup Figure 6F) | Ca2% Response (%) ([1]; log[T360] -9, column head 1.0 μM (antagonist not given), Sup Figure 6F) | Ca2% Response (%) ([1]; log[T360] -10, Veh (no antagonist), Sup Fig 6H) | Ca2% Response (%) ([1]; log[T360] -11, Veh (no antagonist), Sup Fig 6H) | Specific BRET (540/450), % of control ([2]; log[Ligand] -6.5) |
| --- | --- | --- | --- | --- | --- | --- | --- | --- | --- | --- | --- | --- | --- | --- | --- | --- | --- | --- | --- | --- |
| 5.09% and 7.29% and 5.37% | 3.50% and -1.85% | -0.0431% and 0.0431% |  | COc1ccc(CCCC(C)(C)C)c(N2CCC(COc3cccc(C(CC(=O)O)C4CC4)c3)CC2)c1.O=C(O)C(F)(F)F (stereo not drawn) [T360] | 77.01% and 82.20% and 65.62% and 70.70% and 62.82% and 52.19% | 103.51% and 96.49% and 97.50% and 102.50% and 95.14% and 104.86% | 84.06% and 85.08% and 71.51% and 64.23% and 77.69% and 81.96% | 97.67% and 102.33% and 98.42% and 101.58% and 93.55% and 85.15% | 87.63% and 91.69% and 94.92% and 86.67% and 88.77% and 95.10% | 69.29% and 92.54% and 57.45% and 54.28% and 80.53% and 74.12% | 101.29% and 117.31% and 109.31% and 110.20% and 98.46% and 101.54% | 86.89% and 87.93% and 92.03% and 101.29% and 78.90% and 84.60% | 114.73% and 98.50% and 105.51% and 98.82% and 101.50% and 99.68% | 36.89% and 42.81% and 63.72% and 49.92% and 39.85% and 39.51% | 0.21% and -0.34% and -1.74% and 3.19% and -0.23% and -1.29% | -1.37% and 2.64% and 1.34% and 0.99% and 0.42% and -0.20% | 3.15% and -1.68% and 1.07% and 2.54% and -0.69% and -0.28% | -1.53% and 0.93% and -1.85% and 0.26% and -0.21% and -0.96% | -0.48% and -0.96% and -1.50% and -0.87% and 3.85% and 0.21% |  |
|  |  |  |  | CCCN1C(=O)c2ccccc2[C@@H](C(=O)O)[C@@H]1c1ccc(OCc2cccc(-c3ccc(OCCCS(C)(=O)=O)cc3C)c2)cc1 (racemic) [TUG-2745] |  |  |  |  |  |  |  |  |  |  |  |  |  |  |  | 62.50 % of control and 144.23 % of control |
|  |  |  | 50.66 % of control | CCCN1C(=O)c2ccccc2[C@@H](C(=O)O)[C@@H]1c1ccc(OCc2cccc(C(F)(F)F)c2)cc1 [TUG-2743] |  |  |  |  |  |  |  |  |  |  |  |  |  |  |  | 116.97 % of control and 106.08 % of control and 36.73 % of control and 15.16 % of control and 63.36 % of control and 57.97 % of control and 61.90 % of control and 68.58 % of control |
